# Results of single-concentration screens

Protein sequences, listed by entry. Tags and fused reporters are not part of them. Residues count along the entry.
UniProt P9WPC5, whole entry: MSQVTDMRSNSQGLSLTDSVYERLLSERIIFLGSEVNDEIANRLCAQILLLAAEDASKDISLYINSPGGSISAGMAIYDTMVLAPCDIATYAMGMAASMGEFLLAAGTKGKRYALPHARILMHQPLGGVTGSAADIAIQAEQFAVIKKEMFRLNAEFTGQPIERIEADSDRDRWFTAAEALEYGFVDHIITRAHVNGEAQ
UniProt P9WPC3, whole entry partner: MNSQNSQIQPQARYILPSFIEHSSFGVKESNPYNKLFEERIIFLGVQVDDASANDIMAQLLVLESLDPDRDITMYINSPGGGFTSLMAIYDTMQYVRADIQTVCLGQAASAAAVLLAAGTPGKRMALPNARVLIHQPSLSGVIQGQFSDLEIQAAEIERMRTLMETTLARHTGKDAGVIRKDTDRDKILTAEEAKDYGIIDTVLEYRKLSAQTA
UniProt A4I591, 1-473: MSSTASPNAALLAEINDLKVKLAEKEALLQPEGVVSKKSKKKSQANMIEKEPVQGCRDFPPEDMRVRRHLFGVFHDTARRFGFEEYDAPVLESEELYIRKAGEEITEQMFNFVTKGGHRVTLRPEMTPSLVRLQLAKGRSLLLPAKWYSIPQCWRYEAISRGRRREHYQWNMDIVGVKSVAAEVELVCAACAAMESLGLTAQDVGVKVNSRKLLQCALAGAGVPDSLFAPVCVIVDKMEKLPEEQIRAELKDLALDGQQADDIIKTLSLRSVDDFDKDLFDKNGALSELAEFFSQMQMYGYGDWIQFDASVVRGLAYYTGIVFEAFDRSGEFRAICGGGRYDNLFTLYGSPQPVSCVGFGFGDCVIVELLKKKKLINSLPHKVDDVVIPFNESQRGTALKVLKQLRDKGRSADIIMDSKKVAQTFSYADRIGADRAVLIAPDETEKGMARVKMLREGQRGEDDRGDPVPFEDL

The values are deposited in ChEMBL (CHEMBL3988442, “University of Dundee, Small-Polar-MMV Screening Library” (2021)).

The filed quantity is “Percent Effect” (%).
How 0% and 100% were set is not recorded. Most values in the screen are low, and negative values occur.
Compounds were drawn at random from those tested, without regard to their results.

ClpP1P2: 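ClpP1P2, Mycobacterium tuberculosis (UniProt P9WPC5 and UniProt P9WPC3). Protease assay of ClpP1P2, read by the AMC dye that it sets free. Compounds at 50 µM. Higher reads as stronger inhibition, judged from the few compounds that gave an IC50. Most other retested compounds had strongly negative values. Of about 69,000 compounds tested this way, about 10 (0.015%) reached 50% or more in at least one test.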
LiHisRS: 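Histidine-tRNA ligase, Leishmania infantum (UniProt A4I591). Enzyme assay of histidyl-tRNA synthetase; the read-out is not stated. Tested at 30 µM. The record gives no direction; compounds that gave an IC50 in retests scored well above the rest, so higher reads as stronger inhibition. The assay is labelled LdHisRS but filed under L. infantum. About 69,000 compounds were tested under these conditions; 0.6% (about 410) showed 50% or more at least once.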

compound	ClpP1P2	LiHisRS
CCOCC(=O)NCC(Cc1cccc(F)c1)n1cccc1 (stereo unspecified)	1.539	8.696
Cc1noc([C@@H]2C[C@@H]3CCN(CC4CC4)C[C@H]3O2)n1	-5.875	14.04
COc1cccc(S(=O)(=O)N2CCCCC2CCN2CCOCC2)c1 (stereo unspecified)	-5.969	-1.667
CC(=O)N1CCO[C@@H]2CN(S(=O)(=O)C3CC3)CC[C@@H]2C1	-5.824	10
CC(=O)N(Cc1ncc(C)o1)C1CCN(Cc2ccc(F)c(F)c2)C1 (stereo unspecified)	-5.084	30.77
CC[C@H]1CN(C(=O)c2ccc(-n3cnnc3)nc2)CC[C@@]1(C)O	5.1	14.63
CN(C)C(=O)CN1C[C@@H]2CC[C@H](C1)N(Cc1ccccc1C#N)C2	-27.91	17.6
O=C([C@H]1COC[C@H]2CN(c3ccncn3)C[C@H]21)N1CCCC1	-9.044	15.79
CC(C)c1cc(NC(CO)CO)n2nccc2n1	3.472	16.39
CC(C)c1nc(CN(C)C(=O)CCNC(=O)c2ccccc2F)no1	5.138	18
O=C(NCc1cccc2cccnc12)N1CCC(n2cncn2)CC1	6.906	16.22
CCCn1cc(C(=O)NCC(=O)NC2CC2)c(C)n1	-3.797	16.8
C[C@H]1C[C@H]2CN(C(=O)CC3CC3)CC[C@H]2O1	0.8324	2
COc1ccccc1OCc1cc(C(=O)N2C[C@@H](C)O[C@@H](C)C2)n[nH]1	-3.527	6.061
CC(C)(C)CCNc1nccc(-c2c[nH][nH]c2=O)n1	10.99	11.43
Cn1ncc2c(NCC3CCS(=O)(=O)C3)nc(C3CCCC3)nc21 (stereo unspecified)	-4.719	12.5
CCc1c(O)nc2nc(N3CCOCC3)nn2c1C	-5.533	15.04
O=C(Nc1nccs1)C1CCN(Cc2cccc3c2OCCO3)CC1	13.54	23.81
O=C1CC[C@H]2CN(c3ncc(F)cn3)CC[C@H]2N1CCc1ccccn1	-8.416	4.839
CC(C)C[C@@H](CO)n1cc(-c2cncnc2)nn1	3.173	16.39
Cn1cc(C(=O)NCc2ccc(N3CCCC3)nc2)ccc1=O	-5.236	12.07
O=C(c1cscn1)N1CCc2ncc(Cn3cncn3)n2CC1	13.13	10
COc1cccc(OCC(=O)NS(=O)(=O)c2ccc(C)s2)c1	16.09	-5.618
Cc1nc2c(N(CCC(N)=O)CCc3ccccc3)ncnc2o1	17.65	-1.429
CS(=O)(=O)CCNC(=O)N1CC2(CCCC2)c2ccccc21	-0.3566	7.292
O=C(c1cc(Cl)c2c(c1)OCO2)N1CCCC(n2cncn2)C1 (stereo unspecified)	-6.973	11.3
Cc1cc(C)n(-c2ccc(NCCNS(=O)(=O)c3ccccc3)nn2)n1	-3.677	-9.091
CNC(=O)Cn1nc(C(C)C)c2cnn(C(C)(C)C)c2c1=O	4.174	4.959
COCCC1(C(=O)O)CCCN(C(=O)c2cnc3c(c2)CCCC3)C1 (stereo unspecified)	-9.011	4.444
CNc1ncc(C(=O)N2CCOC(C(=O)N3CCCCCC3)C2)cn1 (stereo unspecified)	-9.16	5.674
CCOCC(=O)N1CCc2c(ncnc2N2CCOCC2)C1	0.09993	6.061
CCc1ccc(O)c(C(=O)N2CCCN(CC(=O)N(CC)CC)CC2)c1	-8.94	0
Cc1ncccc1NC(=O)c1nc2c(n1C)CCN(C(=O)C1CC1)C2	1.068	13.86
COc1cc(CN(C)Cc2ccncc2)c(SC)cc1OC	-6.516	14.29
CC(C)[C@H](NS(C)(=O)=O)C(=O)NCc1cc(-c2ccccc2)nn1C	-7.424	5.714
c1ccc(-c2nn3c(CN4CCOCC4)nnc3s2)nc1	5.855	13.79
Cc1ccc(S(=O)(=O)NC[C@H]2OC[C@@H](NCc3ccncc3)[C@@H]2O)cc1	-5.348	4.054
CNC(=O)[C@@H]1C[C@H]2CN(Cc3ccco3)C[C@H]2N1C	12.67	24.39
C/C=C(\C)CN1C[C@H](NC(=O)CCOC)[C@@H](c2ccc(C)o2)C1	10.78	39.13
CC(C)CCn1cc(C(C(=O)O)N2CCCN(C3CCCC3)CC2)cn1 (stereo unspecified)	7.539	19.58
O=C(N1CCCO1)[C@@]12CCO[C@@H]1CCN(Cc1ccccc1)C2	5.067	16.98
CC(=O)c1ccc(OCC(=O)NS(=O)(=O)c2ccc(Cl)s2)cc1	-5.773	6.349
CCC(C)[C@H](N)c1nnc(SCC(=O)Nc2cc(C)ccc2C)o1 (stereo partly specified)	-16.35	0
Cn1cc(C[C@H]2[C@H](N3CCOCC3)CCN2C(=O)c2ccc[nH]2)cn1	-9.318	7
O=C(c1scc2c1OCCO2)N1CCOC(CCc2ccccc2)C1 (stereo unspecified)	-16.79	6.557
O=C(O)c1cc(S(=O)(=O)N2CCOc3ccccc32)ccc1Br	-23.97	4.63
N#Cc1cn[nH]c1NCc1cc(Br)ccc1O	-1.743	-4.762
Cn1cccc1C(=O)N1CC[C@H]2[C@H]1CCN2CC1CCOCC1	11.59	24.56
CCOCC(=O)N1CCC(c2nc(-c3cccnn3)no2)CC1	-6.136	15.83
CNc1cc(-c2nc(CCN3CCCC3=O)no2)ccn1	-7.862	18.75
Cn1ccc(C(=O)N2CCCC(c3cc4cccnc4c(O)n3)C2)n1 (stereo unspecified)	-1.255	9.929
CCNC(=O)c1ccnc(CC2COc3c(cccc3OC)C2)c1 (stereo unspecified)	-0.3866	10.84
CNS(=O)(=O)CCNC(=O)c1coc(COc2ccc(F)cc2)n1	4.518	3.03
Cc1cc(NC(=O)N2CCN(C)CC2C)n(CCC#N)n1 (stereo unspecified)	-1.632	15.07
Nc1cccnc1N1CCN(c2ccccc2)CC1	-10.67	8.333
O=C(Nc1ncnc2c1CCC2)c1cccc(F)c1	26.69	17.2
C1CC(NCc2nnc(C3CC3)o2)CN(Cc2noc(C3CC3)n2)C1 (stereo unspecified)	-37.51	15.04

Some entries from above, unchanged:

Nc1cccnc1N1CCN(c2ccccc2)CC1 gave ClpP1P2: -10.67%; LiHisRS: 8.333%.
CC(C)c1cc(NC(CO)CO)n2nccc2n1 gave ClpP1P2: 3.472%; LiHisRS: 16.39%.
O=C(N1CCCO1)[C@@]12CCO[C@@H]1CCN(Cc1ccccc1)C2 gave ClpP1P2: 5.067%; LiHisRS: 16.98%.